Some results were stated once for a whole list of compounds, not compound by compound.
Test: Net peptide charge and isoelectric point as a function of pH
Format: physicochemical
Conditions: pH 7
Text: The peptide may be purified. For example, the peptide may be lyophilized. […] Other peptides are within the scope of the disclosure.
Exemplary peptides having a charge of +5 to +9 include […](d)[…], […](d)[…], and […](d)[…]. In other embodiments, the purified peptide may be substantially neutral. […] Net charge may be selected by peptide design. Design of electrostatic charge in the peptide hydrogel may allow control of charge interaction with cell membrane and proteins.

For VKVRVRVRVPPTRVRVRVKV [PEP6R], the net charge was “+5 to +9”.
